Source: PubChem BioAssay AID602196 (INSERM, 2012)
Screen: 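Modifiers of cisplatin sensitivity in A549 cells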. Cells: human A549 lung cancer cells. Reagents: siRNA pair against human genes. Duration: 48 h transfection before cisplatin; time from cisplatin to read-out not stated. Conditions: cisplatin at a dose killing half of control-siRNA cells; exact dose and duration not given. Read-out: 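Shift in cisplatin death relative to control siRNA, from -50 (all cells die) to +50 (no cells die); siRNAs harmful on their own scored 0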. Scale: two-siRNA summed score (-2 to +2): higher = both siRNAs protect from cisplatin killing; -2 means both sensitise; mean protection from cisplatin (shift in death): higher = protection from cisplatin killing. Hit rule: 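Each siRNA scores 0 if harmful alone by LDH or WST-1, otherwise +1 if it reduces and -1 if it increases cisplatin killing; a gene is active when both siRNAs agree (sum +2 or -2)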. Meaning of the calls: active = both siRNAs shift cisplatin killing the same way; inactive = no consistent shift, or siRNA harmful alone.
Here is an unselected part of about 23,000 reagents. 455 of all reagents (2%) were called active. 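Active includes both protection and sensitisation; some change values fall well beyond the stated -50 to +50 range.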 Entries without a mark were called inactive. Further read-outs or replicates are left out here. The record does not give: the amount of reagent.

TM4SF18
- two-siRNA summed score (-2 to +2): 0
- mean protection from cisplatin (shift in death) (%): 5.9

KDM4C
- two-siRNA summed score (-2 to +2): -1
- mean protection from cisplatin (shift in death) (%): -6.9

GLDN
- two-siRNA summed score (-2 to +2): 0
- mean protection from cisplatin (shift in death) (%): 2.5

FLJ22588
- two-siRNA summed score (-2 to +2): 0
- mean protection from cisplatin (shift in death) (%): 5.9

LOC441869
- two-siRNA summed score (-2 to +2): 0
- mean protection from cisplatin (shift in death) (%): 25.1

RSPO3
- two-siRNA summed score (-2 to +2): -1
- mean protection from cisplatin (shift in death) (%): 1.3

TTLL4
- two-siRNA summed score (-2 to +2): 2 (active)
- mean protection from cisplatin (shift in death) (%): 14.3

BTN3A1
- two-siRNA summed score (-2 to +2): 0
- mean protection from cisplatin (shift in death) (%): -2.3

ARHGEF39
- two-siRNA summed score (-2 to +2): 0
- mean protection from cisplatin (shift in death) (%): 4.5

SEMA4G
- two-siRNA summed score (-2 to +2): 0
- mean protection from cisplatin (shift in death) (%): 0.5

LOC388688
- two-siRNA summed score (-2 to +2): 0
- mean protection from cisplatin (shift in death) (%): 2.2

IP6K3
- two-siRNA summed score (-2 to +2): 0
- mean protection from cisplatin (shift in death) (%): 12.1

VAV3
- two-siRNA summed score (-2 to +2): -1
- mean protection from cisplatin (shift in death) (%): -10.3

LOC400890
- two-siRNA summed score (-2 to +2): 0
- mean protection from cisplatin (shift in death) (%): -0.4

FBXL19
- two-siRNA summed score (-2 to +2): 0
- mean protection from cisplatin (shift in death) (%): 1.5

TUBA1C
- two-siRNA summed score (-2 to +2): 0
- mean protection from cisplatin (shift in death) (%): 2.7

MIR663AHG
- two-siRNA summed score (-2 to +2): 1
- mean protection from cisplatin (shift in death) (%): -1.8

LTAP1
- two-siRNA summed score (-2 to +2): 1
- mean protection from cisplatin (shift in death) (%): 10

HIGD1B
- two-siRNA summed score (-2 to +2): 1
- mean protection from cisplatin (shift in death) (%): 4.2

LOC440781
- two-siRNA summed score (-2 to +2): 0
- mean protection from cisplatin (shift in death) (%): 14.3

ZNF534
- two-siRNA summed score (-2 to +2): 0
- mean protection from cisplatin (shift in death) (%): -2.7

Part of the list above in another layout.
FBXL19 → two-siRNA summed score (-2 to +2): 0; mean protection from cisplatin (shift in death) (%): 1.5
TUBA1C → two-siRNA summed score (-2 to +2): 0; mean protection from cisplatin (shift in death) (%): 2.7
MIR663AHG → two-siRNA summed score (-2 to +2): 1; mean protection from cisplatin (shift in death) (%): -1.8
LTAP1 → two-siRNA summed score (-2 to +2): 1; mean protection from cisplatin (shift in death) (%): 10
